These are yes or no findings as the source states them, for the method shown. In cells and extracts the contact can be indirect. Some binding calls cover weakened binding; strength is not graded here.
Target: c-MYC (UniProt P01106)
Experiment: co-IP; IP to detect the interaction between c-MYC and FBXO32; cells, precipitating antibody and buffer not stated for this experiment

Amino acid sequences for entries named in this document (tags omitted).
UniProt P01106: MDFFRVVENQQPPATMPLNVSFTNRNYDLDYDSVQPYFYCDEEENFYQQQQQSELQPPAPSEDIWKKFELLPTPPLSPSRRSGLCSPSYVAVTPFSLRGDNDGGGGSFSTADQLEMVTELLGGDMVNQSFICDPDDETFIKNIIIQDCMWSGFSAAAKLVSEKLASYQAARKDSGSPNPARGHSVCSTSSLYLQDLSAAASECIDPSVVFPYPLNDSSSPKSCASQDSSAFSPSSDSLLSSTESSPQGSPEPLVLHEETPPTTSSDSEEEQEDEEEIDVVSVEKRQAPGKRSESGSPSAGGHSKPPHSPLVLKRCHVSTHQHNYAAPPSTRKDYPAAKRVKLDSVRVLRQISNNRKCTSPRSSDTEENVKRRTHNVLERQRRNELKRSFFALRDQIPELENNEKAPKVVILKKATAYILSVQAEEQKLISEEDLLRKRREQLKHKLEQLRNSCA

B1: F-Box Protein 32 (FBXO32) (protein, UniProt Q969P5 1-355)
chain: MPFLGQDWRSPGQNWVKTADGWKRFLDEKSGSFVSDLSSYCNKEVYNKENLFNSLNYDVAAKKRKKDMLNSKTKTQYFHQEKWIYVHKGSTKERHGYCTLGEAFNRLDFSTAILDSRRFNYVVRLLELIAKSQLTSLSGIAQKNFMNILEKVVLKVLEDQQNIRLIRELLQTLYTSLCTLVQRVGKSVLVGNINMWVYRMETILHWQQQLNNIQITRPAFKGLTFTDLPLCLQLNIMQRLSDGRDLVSLGQAAPDLHVLSEDRLLWKKLCQYHFSERQIRKRLILSDKGQLDWKKMYFKLVRCYPRKEQYGDTLQLCKHCHILSWKGTDHPCTANNPESCSVSLSPQDFINLFKF
With B1 the binding was “binds”.

From paper PMC9569902
